Results on 4 molecules are retold here after PMC9638930, “Structural basis of flagellar motility regulation by the MogR repressor and the GmaR antirepressor in Listeria monocytogenes” (Nucleic Acids Research, 2022).

No constants are given. Whether binding was seen depends on the method and setting. For some of these results: Binding calls can cover weak binding; strength is not graded here. For some of these results: Tags and fused reporters may be left off the sequences shown. For some of these results: In cells and extracts the contact can be indirect.

Experiment [1] addresses T1, MogR DBD protein (MogRD; residues 1–162) (Listeria monocytogenes) (UniProt P0DJO8).
T1 sequence: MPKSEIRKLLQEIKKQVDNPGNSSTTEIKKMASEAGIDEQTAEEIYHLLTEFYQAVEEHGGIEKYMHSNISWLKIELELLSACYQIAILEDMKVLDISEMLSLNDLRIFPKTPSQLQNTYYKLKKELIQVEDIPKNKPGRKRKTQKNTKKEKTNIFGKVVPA
The experiment can be described thus: ELISA; wells coated with MogR protein (20 nM); three-fold serially diluted His6-tagged GmaRFL, 2 h at 18°C; detected with anti-His6 antibody; both purified.

The target of experiment [2] is His6-tagged GmaRFL coexpressed from pETDuet-1 (Listeria monocytogenes). In words: pull-down; MogR and His6-tagged GmaRFL coexpressed in E. coli BL21 (DE3) from pETDuet-1; Ni-NTA in 50 mM Tris pH 8.0, 100 mM NaCl, 5 mM βME; SDS-PAGE, Coomassie.
Experiment [3] has as its target GmaRFL^E293A fused with the T18 fragment of adenylate cyclase (Listeria monocytogenes). The experiment can be described thus: two-hybrid; bacterial adenylate cyclase-based two-hybrid in E. coli BTH101, GmaR-T18 and MogR-T25, cells cultured at 30°C, β-galactosidase activity.
Experiment [4] addresses GmaRFL fused with the T18 fragment of adenylate cyclase (Listeria monocytogenes). Described as above.
For experiment [5], the target named is full-length GmaR (GmaRFL; residues 1–637) (Listeria monocytogenes). In words: condition: only GmaRFL preincubated at 37°C for 15 min; SEC; GmaRFL (192 μg) preincubated at 37°C for 15 min, then incubated with MogRD (50 μg) at a 1:1 molar ratio at 18°C for 30 min; Superdex 200 10/300 at room temperature; fractions by SDS-PAGE; both purified.
In experiment [6] the target is His6-tagged GmaR_(141-637)^H286C/R589C (Listeria monocytogenes). The experiment can be described thus: native gel or EMSA; native PAGE; GmaR_(141-637)^H286C/R589C pretreated at different temperatures, then incubated with MogRD at 18°C, βME-free interaction solution; both purified.
The target of experiment [7] is N-terminally truncated GmaR protein (GmaR_(231-637); residues 231–637) (Listeria monocytogenes). In words: crystal structure; GmaR_(231-637)–MogRD complex, crystals grown at 18°C, molecular replacement; both purified.
Experiment [8] deals with full-length GmaR (GmaRFL; residues 1–637) (Listeria monocytogenes). In words: condition: only GmaRFL pretreated at 37°C for 15 min; native gel or EMSA; native PAGE; GmaRFL pretreated at 37°C for 15 min, then incubated with MogRD at 18°C; both purified.
For experiment [9] the target is unchanged. The experiment can be described thus: native gel or EMSA; native PAGE; GmaR pretreated at 4 or 30°C for 15 min, then incubated with MogRD at 18°C; both purified.
Experiment [10] deals with GmaRFL^E293A (Listeria monocytogenes). The description is as above.

As for “His6-tagged GmaRFL protein (Listeria monocytogenes)”, the binding result in [1] is listed as “binds”.

B1: MogRD coexpressed from pETDuet-1 (domain or fragment, UniProt P0DJO8 1-162)
chain: T1 sequence
As for B1, the binding entry in experiment [2] is “binds”.

B2: MogRD fused with the T25 fragment of adenylate cyclase (domain or fragment, UniProt P0DJO8 1-162)
chain: T1 sequence
As for B2, the binding entry in experiment [3] and in experiment [4] was “binds” throughout.

B3: MogR DBD protein (MogRD; residues 1–162) (domain or fragment, UniProt P0DJO8 1-162)
chain: T1 sequence
In the case of B3, the binding result is “no binding” in experiment [5]; “binds” in [6]; “binds” in experiment [7]; “no binding” in experiment [8]; “binds” in experiment [9]; “binds” in experiment [10].
